{"sequences": {"note": "The chains behind the UniProt entries cited, without tags or fusion partners. Residues count along the entry.", "UniProt P47075, residues 1-294": "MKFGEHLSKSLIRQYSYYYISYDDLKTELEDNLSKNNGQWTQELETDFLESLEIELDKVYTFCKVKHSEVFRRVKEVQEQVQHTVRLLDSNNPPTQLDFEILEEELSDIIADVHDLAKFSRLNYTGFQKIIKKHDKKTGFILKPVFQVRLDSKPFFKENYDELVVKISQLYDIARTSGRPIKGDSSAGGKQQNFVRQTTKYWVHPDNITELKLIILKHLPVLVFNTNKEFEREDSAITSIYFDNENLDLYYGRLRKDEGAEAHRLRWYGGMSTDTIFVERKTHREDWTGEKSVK"}, "source": "paper PMC10167327", "key": {"[1]": {"target": "SPX domain of Vtc4 (aa 1–294) with a Gly6 linker and 3xFLAG (S. cerevisiae) (UniProt P47075)", "assay": "co-IP; as a6, with 10 µM 1,5-IP8 during the incubation with the recombinant Vtc2-SPX domain; only the binder purified"}, "[2]": {"target": "SPX domain of Vtc4 (aa 1–294) with a Gly6 linker and 3xFLAG (S. cerevisiae) (UniProt P47075)", "assay": "co-IP; co-immunoadsorption: Vtc4 SPX(1–294)-Gly6-3xFLAG from yeast extract adsorbed on anti-FLAG Dynabeads, washed, incubated with 0.8 µM purified recombinant Vtc2-SPX domain, 1.5 h, 4 °C, IP buffer (0.5% Tween 20, 1 mM DTT in TGN buffer); without 1,5-IP8; only the binder purified"}}, "note": "Results are given in words; binding and its absence hold for the method and conditions named. Binding seen in cells or lysates may run through a third protein. Some binding calls cover weakened binding; strength is not graded here."}
{"binder": "SPX2 (SPX domain of Vtc2, Vtc2(1–201)) (domain or fragment, UniProt P43585 1-201) MLFGVKLANEVYPPWKGSYINYEGLKKFLKEDSVKDGSNDKKARWDDSDESKFVEELDKELEKVYGFQLKKYNNLMERLSHLEKQTDTEAAIKALDADAFQRVLEELLSESTELDNFKRLNFTGFAKIVKKHDKLYPKYPSVKSLLEVRLKELPSHSEEYSPLLYRISFLYNILRSNFNTASEPLASASKFSSIVSNDIDM", "values": [{"measurement": "binding", "setting": "[1]", "value": "no binding (condition: with 10 µM 1,5-IP8)"}, {"measurement": "binding", "setting": "[2]", "value": "binds"}]}
